From the supplement of paper PMC12024529
Where a name gives a salt, the structure may show the parent alone. This is one part of the list. Part of the spread comes from offsets between plates or batches.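 Wild-type or misfolding-prone missense mutant B-domain-deleted factor VIII, fused to Gaussia luciferase, is stably expressed in HEK293 lines. Each score is (mean triplicate-well luminescence minus DMSO mean) divided by DMSO standard deviation. Hits score at least 2; lower scores could stem from decreased secretion or poorer cell viability.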

What was measured:
HEK293 WT BDD-FVIII-Gluc = experiment: secreted FVIII-Gluc luciferase Z-score vs DMSO control; higher = more FVIII-Gluc secretion; conditions: 5 µM; 24 h
[1] = test system: HEK293 p.N1941S BDD-FVIII-Gluc; experiment: as above; conditions: 5 µM; 24 h

Compound | secreted FVIII-Gluc luciferase Z-score (HEK293 WT BDD-FVIII-Gluc) | secreted FVIII-Gluc luciferase Z-score [1]
CC(=O)Oc1ccc(C(c2ccc(OC(C)=O)cc2)c2ccccn2)cc1 [Bisacodyl] | inactive: -0.87 | inactive: -1.13
Cn1c(=O)c2[nH]cnc2n(C)c1=O [Aminophylline (Truphylline)] | inactive: 1.14 | inactive: 0.37
C[C@@H](O)[C@H]1C(=O)N2C(C(=O)O)=C(S[C@@H]3CN[C@H](C(=O)N(C)C)C3)[C@H](C)[C@H]12 [Meropenem] | inactive: -2.78 | inactive: -0.199
S=c1[nH]cnc2nc[nH]c12 [Mercaptopurine] | inactive: -3.32 | inactive: -1.33
CCC(C)(C)C(=O)O[C@H]1C[C@@H](C)C=C2C=C[C@H](C)[C@H](CC[C@@H]3C[C@@H](O)CC(=O)O3)[C@H]21 [Simvastatin (Zocor)] | inactive: -2.56 | inactive: -0.89
O=C(O)c1cc(/N=N/c2ccc(O)c(C(=O)O)c2)ccc1O [olsalazine sodium] | inactive: -0.67 | inactive: -0.014
O=c1cc[nH]c(=S)[nH]1 [2-Thiouracil] | inactive: 0.842 | inactive: 0.0535
CCN(CC)C(=S)SSC(=S)N(CC)CC [Disulfiram (Antabuse)] | inactive: -0.814 | inactive: 0.075
O=C(O)CCc1nc2ccccc2[nH]1 [Procodazole] | active: 2.97 | inactive: 1.58
C[C@H]1O[C@H](O[C@H]2[C@H](O)[C@@H](O)[C@@H](O[C@H]3[C@H](O)[C@@H](O)C(O)O[C@@H]3CO)O[C@@H]2CO)[C@H](O)[C@@H](O)[C@@H]1N[C@H]1C=C(CO)[C@@H](O)[C@H](O)[C@H]1O (stereo not given in full) [Acarbose] | inactive: 0.0249 | inactive: -0.981
CN(C(=O)CN(CCO)CC(=O)N(C)C(C)(C)Cc1ccccc1)C(C)(C)Cc1ccccc1 [Oxethazaine] | inactive: -0.965 | inactive: 0.253
Clc1ccc2c(c1)CCc1cccnc1C2=C1CCNCC1 [Desloratadine] | inactive: -1.03 | inactive: -3.32
CC1CNc2c(cccc2S(=O)(=O)N[C@@H](CCCNC(=N)N)C(=O)N2CC[C@@H](C)C[C@@H]2C(=O)O)C1 (stereo not given in full) [Argatroban] | inactive: -1.29 | inactive: -0.63
Oc1ccc(/C=C/c2cc(O)cc(O)c2)cc1 [Resveratrol] | inactive: -3.61 | inactive: -0.333
COC(=O)CCc1ccc(OCC(O)CNC(C)C)cc1 (stereo not given) [Esmolol HCl] | active: 3.28 | inactive: 1.79

Two compounds picked at random from the list so far, as already listed:
Compound | secreted FVIII-Gluc luciferase Z-score (HEK293 WT BDD-FVIII-Gluc) | secreted FVIII-Gluc luciferase Z-score [1]
Cn1c(=O)c2[nH]cnc2n(C)c1=O [Aminophylline (Truphylline)] | inactive: 1.14 | inactive: 0.37
O=C(O)c1cc(/N=N/c2ccc(O)c(C(=O)O)c2)ccc1O [olsalazine sodium] | inactive: -0.67 | inactive: -0.014
